Measurements as given in US8217085B2 (priority 2009, dated 2012).
Further values from the same series stand in other lists.

System: ATCC strain 43300 Staphylococcus aureus
Assay: Survival of MRSA in MSM and oxacillin, simulated course of treatment, 6 μg/ml oxacillin added daily (Example 3)

## CS(C)(=O)=O [MSM, methylsulfonylmethane]
5% MSM, 6 μg/ml oxacillin added daily, 48 hours
  survival: 7.0 Log cfu/ml
5% MSM, 6 μg/ml oxacillin added daily, 7 days
  survival: 7.9 Log cfu/ml
8% MSM, 6 μg/ml oxacillin added daily, 48 hours
  survival: 4.0 Log cfu/ml
8% MSM, 6 μg/ml oxacillin added daily, 7 days
  survival: 7.6 Log cfu/ml
10% MSM, 6 μg/ml oxacillin added daily, 48 hours
  survival: 4.6 Log cfu/ml
10% MSM, 6 μg/ml oxacillin added daily, 7 days
  survival: 7.2 Log cfu/ml
12% MSM, 6 μg/ml oxacillin added daily, 48 hours
  survival: 3.8 Log cfu/ml
12% MSM, 6 μg/ml oxacillin added daily, 7 days
  survival: 7.1 Log cfu/ml
13% MSM, 6 μg/ml oxacillin added daily, 48 hours
  survival: 3.8 Log cfu/ml
13% MSM, 6 μg/ml oxacillin added daily, 7 days
  survival: 7.2 Log cfu/ml
14% MSM, 6 μg/ml oxacillin added daily, 48 hours
  survival: 4.0 Log cfu/ml
14% MSM, 6 μg/ml oxacillin added daily, 7 days
  survival: 7.0 Log cfu/ml
15% MSM, 6 μg/ml oxacillin added daily, 48 hours
  survival: 4.1 Log cfu/ml
15% MSM, 6 μg/ml oxacillin added daily, 7 days
  survival: 6.9 Log cfu/ml
16% MSM, 6 μg/ml oxacillin added daily, 48 hours
  survival: 5.3 Log cfu/ml
16% MSM, 6 μg/ml oxacillin added daily, 7 days
  survival: 1.0 Log cfu/ml
16% MSM, 6 μg/ml oxacillin added each day, day 7
  survival: no surviving bacteria
